Measured values from paper PMC9038752, “Molecular mechanisms of bifunctional vitamin D receptor agonist-histone deacetylase inhibitor hybrid molecules in triple-negative breast cancer” (Scientific Reports, 2022).

Key:
class I HDAC = system: class I HDAC; design: method as in PMID 9501205; conditions: 100 nM; cited from earlier work
4TO7 cells = test: RNAseq gene expression profiling in 4TO7 cells; assay type: cell-based, mouse; conditions: relative to control
Description: Cells were treated for 6 h to focus more on genes directly regulated by the VDR, or for 24 or 48 h to gain insight into longer-term effects on gene expression.
McGill Genome Centre performed a quality control before sequencing in paired-end at 50 M reads by Illumina NovaSeq 6000 S4 PE100. Sets of genes regulated in the different conditions were sent to us and downstream analysis were performed.
Table S1 and Table S2 : See Excel files with RNAseq results and analysis
48 hours prior to RNA extraction. Samples were prepared in triplicate and run on Illumina NovaSeq 6000 S4
PE100. For assessing differential gene expression for RNAseq data, the LIMMA package inR was used.
RNAseq results and statistical analyses from D, S, S+D, DK-406, and AM-193 conditions measured relative to
AM-193 for 6 or 24 hours prior to RNA extraction . Samples were prepared in triplicate and run on Illumina
NovaSeq 6000 S4 PE100. For assessing differential gene expression for RNAseq data, the LIMMA package in R was […]

[1] = 6 h, RNAseq Supplemental table 1
[2] = 6 h, RNAseq Supplemental table 2, 1 µM AM-193, 10 µM DK-406, 100 nM 1,25D and SAHA
[3] = 24 h, RNAseq Supplemental table 2, 1 µM AM-193, 10 µM DK-406, 100 nM 1,25D and SAHA
[4] = 48 h, RNAseq Supplemental table 1

O=C(CCCCCCC(=O)Nc1ccccc1)NO [SAHA, Suberoylanilide hydroxamic acid]
inhibition of class I HDAC activity in vitro (class I HDAC): almost complete inhibition
Aaas 6h Log Fold (4TO7 cells; [1]): 1.057
Aacs 6h Log Fold (4TO7 cells; [1]): -1.025
Aaed1 6h Log Fold (4TO7 cells; [1]): 1.001
Aagab 6h Log Fold (4TO7 cells; [1]): 1.064
Aak1 6h Log Fold (4TO7 cells; [1]): 1.124
Aaas 6h Log Fold (4TO7 cells; [2]): 0.032
Aacs 6h Log Fold (4TO7 cells; [2]): -0.077
Aagab 6h Log Fold (4TO7 cells; [2]): 0.054
Aak1 6h Log Fold (4TO7 cells; [2]): 0.064
Aamdc 6h Log Fold (4TO7 cells; [2]): -0.024
Aaas 24h Log Fold (4TO7 cells; [3]): 0.096
Aacs 24h Log Fold (4TO7 cells; [3]): 9.68e-5
Aagab 24h Log Fold (4TO7 cells; [3]): 0.109
Aak1 24h Log Fold (4TO7 cells; [3]): -0.325
Aamdc 24h Log Fold (4TO7 cells; [3]): 0.520
Aaas 48h Log Fold (4TO7 cells; [4]): -1.020
Aacs 48h Log Fold (4TO7 cells; [4]): 1.032
Aaed1 48h Log Fold (4TO7 cells; [4]): -1.034
Aagab 48h Log Fold (4TO7 cells; [4]): 1.022
Aak1 48h Log Fold (4TO7 cells; [4]): -1.015
